This note sets out measurements from PMC10647616, “Side-Chain Modified [^99mTc]Tc-DT1 Mimics: A Comparative Study in NTS1R-Positive Models” (International Journal of Molecular Sciences, 2023).

“Also recorded” adds a separate entry of the source.

The test system of the data set is AsPC-1 xenografts. Description: SPECT/CT imaging of SCID mice bearing AsPC-1 xenografts. The format is in vivo, mouse. To be noted: 4 h pi, radioligand alone.

Take “[^99mTc]Tc-DT1: Tc-99m labeled DT1 (N4-Gly-Arg-Arg-Pro-Tyr-Ile-Leu-OH), unmodified reference radioligand (GRRPYIL; N4 chelator, 99mTc label, C-terminal OH; printed: Gly-Arg-Arg-Pro-Tyr-Ile-Leu-)”: the “visualization of the implanted AsPC-1 tumor on SPECT/CT” value is “failed to clearly visualize the implanted tumor; also recorded: failed to effectively target the implanted tumor”.
